Test results: PubChem BioAssay AID1487 (National Center for Advancing Translational Sciences (NCATS), 2009)
The other results are listed elsewhere or left out. Shown are side measurements of this screen, not its main read-out; they come without a call. The list favours compounds with an active or inconclusive main result. Words in brackets tell the shape of the fitted curve; partial curves, single points and poor fits give uncertain potencies.

Assay: qHTS Assay for Modulators of Lamin A Splicing
Settings: HeLa LMNA splicing GFP/RFP minigene ratio, 48 h
In short: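 Read-out is the ratio of GFP to DsRed2 object intensity, acquired by 488 nm laser-scanning cytometry on HeLa lamin A-EGFP minigene reporter cells. Compound incubation 48 hrs at 37 °C in Opti-MEM with 2% FBS; DMSO 0.5% final.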

[1] = measured here: GFP splicing reporter channel
[2] = measured here: RFP viability control channel

Compound	AC50 [1]	AC50 [2]
CCN(CC)c1nc2ccccc2[nH]1	14.1 µM [falling, single point]	15.8 µM [falling, single point]
Cc1oncc1-c1csc(-c2ccccc2Cl)n1	35.5 µM [rising, single point]	20 µM [rising, partial curve]
CC(C)n1c(SCC(=O)Nc2nc3c(s2)CCCC3)nc2c1c(=O)n(C)c(=O)n2C		35.5 µM [rising, single point]
O=C1CCC(=O)N1c1ccc(NC2CCN(Cc3ccccc3)CC2)c([N+](=O)[O-])c1	5.62 µM [falling, single point]	
CCOC(=O)c1cc(-c2ccccc2)n(CC(=O)Nc2ccc(CC)cc2)c1C		2.51 µM [falling, single point]
COc1c(C)cccc1C(=O)NC(=S)Nc1cccc2nsnc12	31.6 µM [falling, single point]	35.5 µM [falling, single point]
Cc1ccc(N2CCN(S(=O)(=O)c3c(C)[nH]c(=O)[nH]c3=O)CC2C)cc1 (stereo not drawn)		0.0316 µM [falling, full curve, poor fit]
O=C(N/N=C/c1cn(-c2ccccc2)nc1-c1cc2ccccc2o1)c1ccncc1	15.8 µM [rising, single point]	
COc1ccc(-c2nnn(CC(=O)c3ccc4c(c3)OCCO4)n2)cc1OC	22.4 µM [rising, single point]	11.2 µM [rising, partial curve]
N#CCc1nc2c3c4c(sc3ncn2n1)CCCC4		3.98 µM [falling, full curve]
CC(=C/c1ccccc1)/C=N/NC(=O)CSc1nc(C)cc(C)n1		20 µM [rising, single point]
CC(=O)c1cccc(CN2CCCC(CCC(=O)NCc3ccc(F)c(F)c3)C2)c1 (stereo not drawn)	0.0282 µM [rising, full curve, poor fit]	
CC1CC(C)CN(C(=O)COC(=O)c2cccc([N+](=O)[O-])c2)C1 (stereo not drawn)		0.562 µM [rising, full curve, poor fit]
CCCCCCCCC(=O)N/N=C(\C)c1ccc(O)cc1O		15.8 µM [rising, single point]
COC(=O)c1c(NC(=O)/C=C/c2ccco2)sc2c1CCC2	17.8 µM [rising, single point]	35.5 µM [rising, single point]
Cn1c(SCc2cc(=O)c3cc(Cl)ccc3[nH]2)nnc1-c1ccccc1	0.158 µM [rising, full curve, poor fit]	
Cc1csc(NC(=O)Cn2nc(C)c([N+](=O)[O-])c2C)n1		3.98 µM [rising, full curve, poor fit]
Cc1ccccc1Cn1nnc(-c2ccc(C(=O)O)cc2)n1		7.08 µM [falling, partial curve, poor fit]
COc1ccc(CCNC(=O)c2cnn3ccccc23)c(OC)c1OC		10 µM [rising, partial curve, poor fit]
COc1ccc(C(=O)NCc2ccc3c(c2)CCN3C(=O)c2ccccc2)cc1	10 µM [falling, partial curve]	6.31 µM [falling, partial curve]
CCOc1cccc(OCCOCCOc2ccccc2C(C)=O)c1	11.2 µM [rising, single point]	14.1 µM [rising, single point]
O=C(O)CCCC[C@@H]1CCSS1	0.00501 µM [falling, full curve]	
COCCn1c(C)cc(C(=O)CN2C(=O)NC3(CCCCCCC3)C2=O)c1C	35.5 µM [rising, single point]	
Cc1ccc(Cl)cc1N1CCN(C(=O)c2ccc(CS(=O)c3ccccc3)o2)CC1 (stereo not drawn)		0.891 µM [rising, full curve]
COc1c(Cl)cc(Cl)cc1/C=C/C(=O)c1ccc(NC(=O)c2cccs2)cc1	35.5 µM [falling, single point]	6.31 µM [falling, single point]
Cc1ccc(NC(=O)CCC(=O)NNC(=S)Nc2ccccc2)c(C)c1		0.0398 µM [falling, full curve, poor fit]
Cc1ccc(C(=O)Nc2c(-c3cccs3)c(=O)c3ccccc3n2C)cc1		11.2 µM [rising, partial curve]

Compound	AC50 [1]	AC50 [2]
COc1ccc(NS(=O)(=O)c2ccc(-c3cnc(C4CC4)o3)cc2)cc1Cl		0.158 µM [rising, full curve, poor fit]
O=C(/C=C/c1ccco1)Nc1nc(-c2ccccn2)cs1		28.2 µM [falling, partial curve]
O=C(NC(c1ccccc1)c1ccccc1)c1cccc(S(=O)(=O)NCc2ccccc2)c1	31.6 µM [rising, single point]	31.6 µM [rising, single point]
Cc1cccc(C)c1NC(=O)c1ccc([N+](=O)[O-])s1		35.5 µM [rising, single point]
Cc1ccc(C)c(N2CCN(C(=O)CCCCn3c(=O)[nH]c4ccccc4c3=O)CC2)c1	25.1 µM [rising, single point]	15.8 µM [rising, partial curve]
O=C(/C=C/c1ccccc1)c1ccccn1	35.5 µM [falling, single point]	31.6 µM [falling, single point]
O=C(Nc1ncccc1Cl)C(Sc1ccccc1)c1ccccc1 (stereo not drawn)	14.1 µM [rising, partial curve, poor fit]	11.2 µM [rising, partial curve, poor fit]
COc1ccc(CN(C#N)c2nc(SC)nc(N(C)C)n2)cc1		22.4 µM [rising, single point]
CC(=O)Oc1ccc(OC(C)=O)c(SCCCCCN2CCOCC2)c1	15.8 µM [falling, single point]	14.1 µM [falling, single point]
COc1ccccc1CNc1ncnc2ccc(-c3ccccc3OC)cc12	11.2 µM [falling, partial curve]	15.8 µM [falling, single point]
COc1ccccc1NC(C)C(=O)Nc1ccc(C(C)=O)cc1 (stereo not drawn)	35.5 µM [rising, single point]	35.5 µM [rising, single point]
COc1ccc(C(=O)C2CCN(C(=O)c3ccc(C)cc3)CC2)cc1		11.2 µM [rising, partial curve]
Cc1cc(=O)n2[nH]c(C)c(-c3ccc(Cl)cc3)c2n1	14.1 µM [rising, single point]	25.1 µM [rising, single point]
Cc1ccc(-n2ncc3c(N4CCCC4)ncnc32)c(C)c1	14.1 µM [rising, single point]	22.4 µM [rising, single point]
CC(C)C(C(=O)NCc1ccco1)N(C(=O)CNS(=O)(=O)c1ccccc1)c1ccccc1 (stereo not drawn)	28.2 µM [rising, partial curve, poor fit]	22.4 µM [rising, partial curve, poor fit]
O=C(Cn1cnc2cc([N+](=O)[O-])ccc2c1=O)NC1CCS(=O)(=O)C1 (stereo not drawn)	2.82 µM [falling, partial curve]	
CCOC(=O)N1CCC(N2C(=O)c3ccccc3C2Nc2ccc(S(=O)(=O)N3CCCCC3)cc2)CC1 (stereo not drawn)	6.31 µM [rising, single point]	
CCCCN1C(=O)C(O)(CC(=O)c2ccco2)c2cc(Br)ccc21 (stereo not drawn)	14.1 µM [rising, single point]	14.1 µM [rising, partial curve, poor fit]
Cc1ccc(C(=O)N/C(=C\c2ccc(Br)cc2)c2nc(=S)[nH][nH]2)cc1	35.5 µM [falling, single point]	35.5 µM [falling, partial curve]
Cc1cccc(Nc2ccncc2S(=O)(=O)NC(=O)NC(C)C)c1	5.62 µM [falling, partial curve, poor fit]	
COc1ccc(NS(=O)(=O)c2ccc3[nH]c(=O)ccc3c2)cc1OC	15.8 µM [rising, partial curve, poor fit]	20 µM [rising, partial curve]
CC(C)c1c(O)nc(SCC(=O)Nc2ccc3c(c2)CCC3)[nH]c1=O	20 µM [rising, partial curve]	35.5 µM [rising, single point]
O=C(Cc1ccccc1)Nc1ccccc1Sc1ccccc1	11.2 µM [rising, single point]	25.1 µM [rising, single point]
CCn1c(CSc2nc3ccccc3s2)nc2ccccc21		14.1 µM [rising, single point]
COc1ccc(O[C@H]2C=C[C@@H](c3ccccc3)O[C@@H]2COC(=O)CC/C(C)=N/O[C@H](C)c2cn([C@@H]3COC[C@H]3O)nn2)cc1	14.1 µM [rising, partial curve]	15.8 µM [rising, partial curve]
Cn1c(SCC(=O)Nc2sc3c(c2C#N)CCC3)nnc1C1COc2ccccc2O1 (stereo not drawn)		35.5 µM [rising, single point]
O=C(Oc1ccccc1N1C(=O)C2CCCCC2C1=O)c1ccccc1F (stereo not drawn)		0.794 µM [rising, full curve, poor fit]

Individual results from above:
Cc1cc(=O)n2[nH]c(C)c(-c3ccc(Cl)cc3)c2n1 | AC50 [1]: 14.1 µM [rising, single point]
Cc1cccc(Nc2ccncc2S(=O)(=O)NC(=O)NC(C)C)c1 | AC50 [1]: 5.62 µM [falling, partial curve, poor fit]
O=C(Nc1ncccc1Cl)C(Sc1ccccc1)c1ccccc1 (stereo not drawn) | AC50 [1]: 14.1 µM [rising, partial curve, poor fit]
